In the supplement of paper PMC10849652:
The list shows a part of the results.

By UniProt entry, the sequences of proteins in these tests, tags left out. Where a name states a change or a piece, a line headed by the entry shows the natural chain unless it says otherwise.
UniProt Q9HCE0: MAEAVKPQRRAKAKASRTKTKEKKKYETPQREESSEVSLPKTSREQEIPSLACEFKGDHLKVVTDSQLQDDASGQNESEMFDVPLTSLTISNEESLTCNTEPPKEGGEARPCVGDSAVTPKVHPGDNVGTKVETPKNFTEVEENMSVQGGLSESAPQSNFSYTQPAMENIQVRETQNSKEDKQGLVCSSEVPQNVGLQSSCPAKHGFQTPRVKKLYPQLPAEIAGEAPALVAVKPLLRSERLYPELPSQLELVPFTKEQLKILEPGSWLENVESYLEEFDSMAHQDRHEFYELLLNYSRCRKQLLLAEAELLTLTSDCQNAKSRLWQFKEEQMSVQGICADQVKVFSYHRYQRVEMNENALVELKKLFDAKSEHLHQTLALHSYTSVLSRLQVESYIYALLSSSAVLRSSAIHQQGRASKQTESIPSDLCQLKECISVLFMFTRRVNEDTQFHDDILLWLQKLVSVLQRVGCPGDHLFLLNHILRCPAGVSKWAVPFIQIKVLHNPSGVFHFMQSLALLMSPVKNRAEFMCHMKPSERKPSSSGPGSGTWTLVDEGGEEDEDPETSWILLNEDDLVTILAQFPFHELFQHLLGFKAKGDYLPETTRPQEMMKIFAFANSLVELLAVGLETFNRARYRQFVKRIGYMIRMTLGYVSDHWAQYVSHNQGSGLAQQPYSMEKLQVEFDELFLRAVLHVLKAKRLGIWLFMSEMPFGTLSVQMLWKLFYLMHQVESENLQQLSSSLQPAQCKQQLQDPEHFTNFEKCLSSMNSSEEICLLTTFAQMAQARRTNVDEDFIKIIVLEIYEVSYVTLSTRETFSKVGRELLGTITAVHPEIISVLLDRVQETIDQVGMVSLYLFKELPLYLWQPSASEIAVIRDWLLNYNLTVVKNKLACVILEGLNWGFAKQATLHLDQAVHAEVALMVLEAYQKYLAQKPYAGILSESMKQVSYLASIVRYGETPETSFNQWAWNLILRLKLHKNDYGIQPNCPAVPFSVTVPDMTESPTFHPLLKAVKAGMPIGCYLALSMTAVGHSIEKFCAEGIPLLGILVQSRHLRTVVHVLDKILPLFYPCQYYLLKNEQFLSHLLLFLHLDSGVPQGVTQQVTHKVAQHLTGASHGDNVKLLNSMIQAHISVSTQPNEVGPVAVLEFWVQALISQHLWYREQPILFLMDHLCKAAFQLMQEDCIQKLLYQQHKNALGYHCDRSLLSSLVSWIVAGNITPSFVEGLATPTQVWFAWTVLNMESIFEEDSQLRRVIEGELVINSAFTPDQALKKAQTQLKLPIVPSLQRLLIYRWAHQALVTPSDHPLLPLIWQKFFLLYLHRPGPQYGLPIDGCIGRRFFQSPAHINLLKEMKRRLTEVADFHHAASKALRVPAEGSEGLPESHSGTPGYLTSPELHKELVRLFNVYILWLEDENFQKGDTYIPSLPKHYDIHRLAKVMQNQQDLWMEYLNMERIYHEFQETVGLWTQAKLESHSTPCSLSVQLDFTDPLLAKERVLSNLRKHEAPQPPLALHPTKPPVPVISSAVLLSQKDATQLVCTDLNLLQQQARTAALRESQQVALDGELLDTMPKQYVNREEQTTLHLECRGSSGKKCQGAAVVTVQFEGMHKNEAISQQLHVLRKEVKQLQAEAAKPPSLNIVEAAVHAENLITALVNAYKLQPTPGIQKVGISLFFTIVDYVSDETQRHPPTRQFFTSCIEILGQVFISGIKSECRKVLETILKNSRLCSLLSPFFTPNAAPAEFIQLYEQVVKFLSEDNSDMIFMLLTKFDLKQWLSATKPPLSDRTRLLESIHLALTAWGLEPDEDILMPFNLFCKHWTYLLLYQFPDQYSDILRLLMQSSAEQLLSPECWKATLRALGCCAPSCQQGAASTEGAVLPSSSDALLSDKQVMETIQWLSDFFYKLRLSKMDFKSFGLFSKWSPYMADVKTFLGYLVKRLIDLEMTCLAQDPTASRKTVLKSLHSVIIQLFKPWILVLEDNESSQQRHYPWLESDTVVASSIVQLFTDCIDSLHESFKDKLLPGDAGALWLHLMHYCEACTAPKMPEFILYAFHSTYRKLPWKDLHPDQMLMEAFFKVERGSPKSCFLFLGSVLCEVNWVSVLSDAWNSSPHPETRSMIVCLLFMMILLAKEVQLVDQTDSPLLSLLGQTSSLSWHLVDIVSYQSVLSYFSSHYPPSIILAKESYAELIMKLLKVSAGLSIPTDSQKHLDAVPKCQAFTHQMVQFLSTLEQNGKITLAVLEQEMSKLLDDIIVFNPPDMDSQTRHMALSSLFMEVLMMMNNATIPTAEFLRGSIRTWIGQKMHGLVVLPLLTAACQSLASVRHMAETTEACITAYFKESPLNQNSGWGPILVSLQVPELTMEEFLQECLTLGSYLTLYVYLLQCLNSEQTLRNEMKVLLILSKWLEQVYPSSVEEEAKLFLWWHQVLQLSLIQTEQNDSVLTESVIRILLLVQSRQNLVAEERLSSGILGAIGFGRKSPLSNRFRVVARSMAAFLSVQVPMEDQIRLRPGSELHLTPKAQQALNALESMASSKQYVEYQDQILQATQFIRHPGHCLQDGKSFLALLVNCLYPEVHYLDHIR
UniProt Q6NZ36: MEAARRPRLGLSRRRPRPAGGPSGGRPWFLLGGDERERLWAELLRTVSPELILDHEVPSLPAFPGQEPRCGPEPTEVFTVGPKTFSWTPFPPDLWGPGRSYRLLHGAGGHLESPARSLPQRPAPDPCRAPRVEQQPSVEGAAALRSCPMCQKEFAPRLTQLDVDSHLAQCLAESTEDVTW
UniProt P05413, whole entry, looked up: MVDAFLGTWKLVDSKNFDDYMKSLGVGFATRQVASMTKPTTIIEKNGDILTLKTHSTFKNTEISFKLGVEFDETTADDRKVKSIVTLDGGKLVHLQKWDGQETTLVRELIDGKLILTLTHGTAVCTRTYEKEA
UniProt Q8IXS8: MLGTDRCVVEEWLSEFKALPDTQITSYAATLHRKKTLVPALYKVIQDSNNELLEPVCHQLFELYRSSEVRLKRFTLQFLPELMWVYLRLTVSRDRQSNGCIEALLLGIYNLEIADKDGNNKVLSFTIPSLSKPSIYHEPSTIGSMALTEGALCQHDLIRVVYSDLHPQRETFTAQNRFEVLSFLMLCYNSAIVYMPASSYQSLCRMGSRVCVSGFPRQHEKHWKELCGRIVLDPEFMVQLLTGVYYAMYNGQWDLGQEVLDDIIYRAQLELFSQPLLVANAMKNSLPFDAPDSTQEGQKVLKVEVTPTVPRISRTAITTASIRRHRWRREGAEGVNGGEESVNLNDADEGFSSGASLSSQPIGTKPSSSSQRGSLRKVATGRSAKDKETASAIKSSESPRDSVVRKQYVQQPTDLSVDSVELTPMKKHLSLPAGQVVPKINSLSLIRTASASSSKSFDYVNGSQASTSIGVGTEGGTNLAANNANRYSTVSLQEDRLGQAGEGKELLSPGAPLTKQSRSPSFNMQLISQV
UniProt P25116: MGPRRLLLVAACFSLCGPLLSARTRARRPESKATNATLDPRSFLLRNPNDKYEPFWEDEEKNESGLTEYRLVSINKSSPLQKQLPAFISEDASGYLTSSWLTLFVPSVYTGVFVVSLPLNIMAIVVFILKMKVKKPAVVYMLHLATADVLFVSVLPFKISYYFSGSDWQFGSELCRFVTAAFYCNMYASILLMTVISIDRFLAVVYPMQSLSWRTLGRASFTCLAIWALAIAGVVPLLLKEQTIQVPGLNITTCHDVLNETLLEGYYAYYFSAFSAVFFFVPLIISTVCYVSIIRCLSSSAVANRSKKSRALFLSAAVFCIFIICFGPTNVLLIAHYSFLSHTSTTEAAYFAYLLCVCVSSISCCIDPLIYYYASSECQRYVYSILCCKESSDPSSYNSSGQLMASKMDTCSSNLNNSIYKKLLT
UniProt Q5T6L9: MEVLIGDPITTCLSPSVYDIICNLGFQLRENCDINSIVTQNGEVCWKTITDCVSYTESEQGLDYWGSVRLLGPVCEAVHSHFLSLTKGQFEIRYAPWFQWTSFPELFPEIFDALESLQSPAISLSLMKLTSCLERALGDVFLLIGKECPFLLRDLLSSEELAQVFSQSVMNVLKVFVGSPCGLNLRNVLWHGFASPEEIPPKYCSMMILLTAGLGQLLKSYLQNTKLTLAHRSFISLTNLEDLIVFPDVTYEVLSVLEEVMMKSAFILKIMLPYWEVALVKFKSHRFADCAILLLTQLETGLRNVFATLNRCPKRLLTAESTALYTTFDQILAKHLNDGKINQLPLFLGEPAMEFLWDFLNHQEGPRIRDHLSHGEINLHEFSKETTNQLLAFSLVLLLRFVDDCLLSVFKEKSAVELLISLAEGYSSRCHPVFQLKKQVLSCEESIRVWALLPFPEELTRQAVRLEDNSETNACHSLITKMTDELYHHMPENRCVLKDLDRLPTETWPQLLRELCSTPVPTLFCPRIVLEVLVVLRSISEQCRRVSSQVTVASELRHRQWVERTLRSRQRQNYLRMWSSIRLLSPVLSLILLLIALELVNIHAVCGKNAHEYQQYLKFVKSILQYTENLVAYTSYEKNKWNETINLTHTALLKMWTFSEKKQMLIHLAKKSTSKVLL
UniProt Q9H6S3: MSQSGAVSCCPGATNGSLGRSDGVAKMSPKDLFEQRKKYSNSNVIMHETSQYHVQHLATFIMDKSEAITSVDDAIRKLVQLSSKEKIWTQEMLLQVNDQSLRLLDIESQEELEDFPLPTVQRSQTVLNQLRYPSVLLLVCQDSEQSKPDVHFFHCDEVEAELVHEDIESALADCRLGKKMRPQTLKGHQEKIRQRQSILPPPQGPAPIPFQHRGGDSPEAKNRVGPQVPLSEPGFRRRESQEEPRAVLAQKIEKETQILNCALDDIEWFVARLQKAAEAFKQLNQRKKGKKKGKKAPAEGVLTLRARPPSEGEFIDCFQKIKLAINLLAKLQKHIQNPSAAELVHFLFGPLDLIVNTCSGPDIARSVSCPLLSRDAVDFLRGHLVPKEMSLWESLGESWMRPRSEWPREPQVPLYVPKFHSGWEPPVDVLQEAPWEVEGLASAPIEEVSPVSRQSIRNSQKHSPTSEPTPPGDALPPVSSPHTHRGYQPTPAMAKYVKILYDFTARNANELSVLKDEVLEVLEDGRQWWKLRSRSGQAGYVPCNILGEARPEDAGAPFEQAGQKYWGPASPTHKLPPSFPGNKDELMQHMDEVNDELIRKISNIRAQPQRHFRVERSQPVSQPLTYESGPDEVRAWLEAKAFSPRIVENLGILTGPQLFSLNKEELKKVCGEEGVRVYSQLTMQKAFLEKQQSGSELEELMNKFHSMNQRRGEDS
UniProt Q9BYI3: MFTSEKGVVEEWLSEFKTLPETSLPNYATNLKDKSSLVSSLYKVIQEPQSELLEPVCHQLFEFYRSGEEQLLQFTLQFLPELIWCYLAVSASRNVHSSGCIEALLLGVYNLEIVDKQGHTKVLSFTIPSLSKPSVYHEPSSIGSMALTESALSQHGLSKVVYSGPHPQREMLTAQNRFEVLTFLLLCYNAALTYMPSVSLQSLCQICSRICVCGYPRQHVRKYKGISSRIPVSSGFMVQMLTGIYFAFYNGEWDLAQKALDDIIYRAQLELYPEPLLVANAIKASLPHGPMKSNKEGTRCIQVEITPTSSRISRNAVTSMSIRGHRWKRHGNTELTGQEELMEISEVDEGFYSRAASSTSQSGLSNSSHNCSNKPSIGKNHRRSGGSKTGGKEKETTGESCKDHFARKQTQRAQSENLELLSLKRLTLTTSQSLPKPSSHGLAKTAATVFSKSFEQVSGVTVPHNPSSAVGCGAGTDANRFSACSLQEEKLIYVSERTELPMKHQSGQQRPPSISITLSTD
UniProt Q9HCM4: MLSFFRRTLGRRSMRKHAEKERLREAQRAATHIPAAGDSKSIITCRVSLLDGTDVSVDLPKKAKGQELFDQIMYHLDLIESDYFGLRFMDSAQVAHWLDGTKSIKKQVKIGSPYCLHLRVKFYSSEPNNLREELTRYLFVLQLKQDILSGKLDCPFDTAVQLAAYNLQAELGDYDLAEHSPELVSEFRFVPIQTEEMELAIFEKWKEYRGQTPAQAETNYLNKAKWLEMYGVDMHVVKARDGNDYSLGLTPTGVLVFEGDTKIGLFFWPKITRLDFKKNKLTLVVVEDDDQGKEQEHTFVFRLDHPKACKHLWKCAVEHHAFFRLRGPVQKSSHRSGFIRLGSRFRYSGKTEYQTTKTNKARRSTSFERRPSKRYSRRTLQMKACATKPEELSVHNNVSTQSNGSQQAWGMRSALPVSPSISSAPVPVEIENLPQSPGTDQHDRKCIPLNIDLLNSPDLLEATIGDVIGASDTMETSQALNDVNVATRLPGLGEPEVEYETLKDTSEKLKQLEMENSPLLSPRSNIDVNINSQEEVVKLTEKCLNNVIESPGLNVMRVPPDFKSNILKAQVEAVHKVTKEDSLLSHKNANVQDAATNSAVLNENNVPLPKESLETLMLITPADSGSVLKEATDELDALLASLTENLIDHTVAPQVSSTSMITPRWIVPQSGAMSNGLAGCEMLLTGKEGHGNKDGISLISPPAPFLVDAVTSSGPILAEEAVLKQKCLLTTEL

What was measured:
Experiment in all cases: log2 fold change, soluble protein after heating vs DMSO (PISA); higher = thermal stabilisation; K562 cells, 10 uM, 30 min; active = over 0.2 and 3.5 SD of the protein, either way, in both replicates (recomputed)
filanesib = compound: CON(C)C(=O)N1N=C(c2cc(F)ccc2F)S[C@@]1(CCCN)c1ccccc1 [filanesib]
Procedure, shortened: (§1)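 K562 cells at 2×10^6 cells/mL were treated for 30 min with 10 μM compound, and aliquots were heated for 3 min over 48°C-58°C before pooling. Extraction used PBS with 0.5% NP-40 at 4°C, and soluble protein was the supernatant after 21,000xg for 90 min, measured by TMTpro 16plex LC-MS/MS with channel sums equalised. Thermal stability values, relative to control samples and from duplicates, are log2 fold changes.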

[1] = compound: CS(=O)(=O)c1ccc(-c2cnc(N)c(C(=O)Nc3ccccc3)n2)cc1
Procedure, shortened: as §1

zotarolimus = compound: CO[C@H]1C[C@@H]2CC[C@@H](C)[C@@](O)(O2)C(=O)C(=O)N2CCCC[C@H]2C(=O)O[C@H]([C@H](C)C[C@@H]2CC[C@H](n3cnnn3)[C@H](OC)C2)CC(=O)[C@H](C)/C=C(\C)[C@@H](O)[C@@H](OC)C(=O)[C@H](C)C[C@H](C)/C=C/C=C/C=C/1C [zotarolimus]
Procedure, shortened: as §1

[2] = compound: COc1cc2nc(-c3cc(F)ccc3O)nc(N[C@@H]3CNC[C@H]3C(C)(C)O)c2cc1OC
Procedure, shortened: as §1

lapatinib = compound: CS(=O)(=O)CCNCc1ccc(-c2ccc3ncnc(Nc4ccc(OCc5cccc(F)c5)c(Cl)c4)c3c2)o1 [lapatinib]
Procedure, shortened: as §1

[3] = compound: C[C@H](C1=CC=C(C=C1)C(=O)NC2=C3C=CNC3=NC=C2)N
Procedure, shortened: as §1

duvelisib = compound: C[C@H](Nc1ncnc2nc[nH]c12)c1cc2cccc(Cl)c2c(=O)n1-c1ccccc1 [duvelisib]
Procedure, shortened: as §1

[4] = compound: Cc1cc(SCc2sc(-c3ccc(C(F)(F)F)cc3)nc2C)ccc1OCC(=O)O
Procedure, shortened: as §1

ispinesib = compound: Cc1ccc(C(=O)N(CCCN)[C@@H](c2nc3cc(Cl)ccc3c(=O)n2Cc2ccccc2)C(C)C)cc1 [ispinesib]
Procedure, shortened: as §1

[5] = compound: COC1=CC=C(C=C1)CN2C=CC3=C2C=C(C=C3)C(=O)NO
Procedure, shortened: as §1

crizotinib = compound: C[C@@H](Oc1cc(-c2cnn(C3CCNCC3)c2)cnc1N)c1c(Cl)ccc(F)c1Cl [crizotinib]
Procedure, shortened: as §1

doramapimod = compound: Cc1ccc(-n2nc(C(C)(C)C)cc2NC(=O)Nc2ccc(OCCN3CCOCC3)c3ccccc23)cc1 [doramapimod]
Procedure, shortened: as §1

alisertib = compound: COc1cc(Nc2ncc3c(n2)-c2ccc(Cl)cc2C(c2c(F)cccc2OC)=NC3)ccc1C(=O)O [alisertib]
Procedure, shortened: as §1

[6] = compound: COc1cccc2cc(-c3nc([C@H]4CC[C@H](C(=O)O)CC4)n4ncnc(N)c34)[nH]c12
Procedure, shortened: as §1

gefitinib = compound: COc1cc2ncnc(Nc3ccc(F)c(Cl)c3)c2cc1OCCCN1CCOCC1 [gefitinib]
Procedure, shortened: as §1

pictilisib = compound: CS(=O)(=O)N1CCN(Cc2cc3nc(-c4cccc5[nH]ncc45)nc(N4CCOCC4)c3s2)CC1 [pictilisib]
Procedure, shortened: as §1

[7] = compound: C[C@@H]1COCCN1C2=NC(=NC(=C2)C3(CC3)S(=O)(=O)C)C4=C5C=CNC5=CC=C4
Procedure, shortened: as §1

gandotinib = compound: Cc1cc(Nc2cc(CN3CCOCC3)c3nc(C)c(Cc4ccc(Cl)cc4F)n3n2)n[nH]1 [gandotinib]
Procedure, shortened: as §1

idasanutlin = compound: COc1cc(C(=O)O)ccc1NC(=O)[C@@H]1N[C@@H](CC(C)(C)C)[C@](C#N)(c2ccc(Cl)cc2F)[C@H]1c1cccc(Cl)c1F [idasanutlin]
Procedure, shortened: as §1

tozasertib = compound: Cc1cc(Nc2cc(N3CCN(C)CC3)nc(Sc3ccc(NC(=O)C4CC4)cc3)n2)n[nH]1 [tozasertib]
Procedure, shortened: as §1

Measured: log2 fold change

EXO5 (UniProt Q9H790)
inactive: filanesib -0.03 | [1] -0.002

ERCC1 isoform 3 (UniProt P07992)
inactive: filanesib 0.187 | zotarolimus 0.147 | [2] 0.268 | lapatinib 0.219 | [1] 0.022 | [3] 0.049 | duvelisib 0.211 | [4] 0.019 | ispinesib 0.09

ESRRB isoform 1 (UniProt O95718)
inactive: [5] -0.169 | zotarolimus 0.193 | crizotinib 0.19 | [3] -0.143 | duvelisib 0.029 | [4] 0.046 | doramapimod -0.108

EPHB4 (UniProt P54760)
inactive: filanesib 0.134 | alisertib -0.017 | [2] 0.395 | lapatinib 0.08 | [1] 0.15 | ispinesib -0.016
active: [6] -0.937

FAM172A (UniProt Q8WUF8)
inactive: filanesib -0.103 | zotarolimus -0.102 | alisertib -0.135 | gefitinib -0.043 | [6] 0.215 | pictilisib -0.024 | [1] 0.204 | [7] 0.046 | [3] -0.005 | gandotinib 0

FADS1 (UniProt F5GYH4)
inactive: [5] -0.373 | crizotinib -0.079 | doramapimod 0.106

EPB41L2 isoform 4 (UniProt O43491)
inactive: [5] 0.484 | filanesib -0.199 | alisertib 0.139 | [2] 0.186 | gefitinib -0.059 | [6] 0 | lapatinib -0.181 | [1] -0.119 | crizotinib -0.065 | [7] 0.423 | doramapimod 0.129

ERCC6L (UniProt Q2NKX8)
inactive: [5] 0.035 | filanesib 0.032 | zotarolimus 0.038 | idasanutlin 0.094 | [2] -0.17 | gefitinib 0.063 | lapatinib 0.095 | pictilisib 0.057 | [1] 0.107 | crizotinib -0.144 | [7] -0.159 | [3] 0.304 | gandotinib 0.072 | tozasertib 0.075 | doramapimod 0.238 | ispinesib -0.201

FAM185A (UniProt Q8N0U4)
inactive: [5] 0.053 | idasanutlin 0.027 | alisertib -0.065 | [2] 0.174 | gefitinib 0.035 | [6] -0.002 | lapatinib -0.118 | crizotinib 0.124 | duvelisib -0.248 | tozasertib -0.047 | [4] -0.273 | doramapimod 0.044 | ispinesib 0.279

EPS15L1 (UniProt M0QY01)
inactive: [5] -0.129 | filanesib -0.023 | [1] -0.037 | crizotinib -0.088 | [7] -0.165 | doramapimod -0.042

ERF (UniProt P50548)
active: tozasertib -1.2
inactive: filanesib 0.328 | pictilisib 0.148 | [1] 0.173 | [7] -0.05 | gandotinib -0.29

FAM114A1 (UniProt Q8IWE2)
inactive: [5] 0.002 | alisertib 1.38 | [6] 0.03 | pictilisib 0.009 | crizotinib -0.073 | [7] -0.119 | duvelisib 0.104 | gandotinib -0.072 | tozasertib 0.102 | [4] -0.069 | doramapimod 0.037 | ispinesib 0.036

FAM171A1 (UniProt Q5VUB5)
inactive: [5] -0.127 | idasanutlin -0.054 | [2] 0.066 | lapatinib -0.078 | pictilisib -0.009 | crizotinib 0.073 | [7] 0.136 | gandotinib -0.22 | doramapimod -0.052

EXOSC10 (UniProt Q01780)
inactive: [5] 0.593 | filanesib 0.136 | zotarolimus 0.115 | idasanutlin 0.01 | alisertib -0.002 | [2] 0.387 | [6] 0.1 | lapatinib -0.221 | pictilisib 0.227 | [1] 0.126 | crizotinib 0.043 | [7] 0.063 | [3] -0.015 | gandotinib 0.527 | [4] -0.138 | doramapimod 0.097 | ispinesib -0.441

FAM117B (UniProt Q6P1L5)
inactive: [5] 0.053 | zotarolimus 0.007 | idasanutlin -0.062 | pictilisib 0.208 | crizotinib 0.563 | [7] 0.007 | [3] -0.021 | gandotinib -0.164 | [4] 0.257 | doramapimod 0.21 | ispinesib -0.057

EPC1 (UniProt Q9H2F5)
inactive: alisertib -0.132 | [6] -0.195 | ispinesib -0.233

EPG5 (UniProt Q9HCE0)
inactive: filanesib -0.272 | [1] 0.129 | [7] 0.295 | duvelisib 0.252 | [4] 0.105 | ispinesib 0.026

EVI5 isoform 2 (UniProt O60447)
inactive: zotarolimus -0.093 | idasanutlin 0.149 | [2] 0.052 | lapatinib -0.119 | pictilisib -0.138 | [3] 0.067 | duvelisib 0.042 | gandotinib -0.111 | tozasertib 0.504 | [4] -0.029 | ispinesib -0.228

FAM110A (UniProt Q9BQ89)
inactive: pictilisib 0.064 | [7] -0.224 | gandotinib -0.076

F13A1 (UniProt P00488)
inactive: alisertib 0.049 | gefitinib 0.257 | [6] 0.099 | duvelisib 0.205 | tozasertib -0.216 | [4] -0.011

F9 (UniProt P00740)
inactive: zotarolimus -0.218 | idasanutlin 0.021 | [2] 0.068 | gefitinib 0.184 | lapatinib -0.021 | [3] -0.137 | duvelisib -0.047 | tozasertib 0.007 | [4] -0.326

EPHX2 (UniProt E5RI53)
inactive: [7] 0.067

FAAP20 isoform 2 (UniProt Q6NZ36)
inactive: alisertib -0.068 | [6] 0.045 | pictilisib 0.119 | [7] 0.233 | gandotinib 0.116

FAM178B (UniProt Q8IXR5)
inactive: pictilisib 0.055 | gandotinib -0.097

FAM107B isoform 2 (UniProt Q9H098)
inactive: pictilisib 0.153 | [7] -0.009 | duvelisib -0.017 | gandotinib -0.054 | [4] -0.041

FABP3 (UniProt P05413)
inactive: idasanutlin 0.078

FAM120B (UniProt Q96EK7)
inactive: idasanutlin 0.086 | pictilisib -0.231 | gandotinib 0.065

Quoted at random: four records from the list, in no set order.
ERCC6L (UniProt Q2NKX8)
inactive: [5] 0.035 | filanesib 0.032 | zotarolimus 0.038 | idasanutlin 0.094 | [2] -0.17 | gefitinib 0.063 | lapatinib 0.095 | pictilisib 0.057 | [1] 0.107 | crizotinib -0.144 | [7] -0.159 | [3] 0.304 | gandotinib 0.072 | tozasertib 0.075 | doramapimod 0.238 | ispinesib -0.201

FABP3 (UniProt P05413)
inactive: idasanutlin 0.078

EPHX2 (UniProt E5RI53)
inactive: [7] 0.067

FAM114A1 (UniProt Q8IWE2)
inactive: [5] 0.002 | alisertib 1.38 | [6] 0.03 | pictilisib 0.009 | crizotinib -0.073 | [7] -0.119 | duvelisib 0.104 | gandotinib -0.072 | tozasertib 0.102 | [4] -0.069 | doramapimod 0.037 | ispinesib 0.036

Next results follow:

ERI3 (UniProt H0Y4B0)
inactive: filanesib 0.012 | [1] 0.07 | [7] -0.433

EPS8L1 (UniProt Q8TE68)
inactive: zotarolimus 0.165 | [7] -0.333 | [3] -0.058 | duvelisib -0.015 | [4] 0.114

FADS2 (UniProt O95864)
inactive: pictilisib 0.106 | gandotinib -0.217

F13B (UniProt P05160)
inactive: zotarolimus 0.09 | [3] -0.307 | tozasertib 0.104

FAM102B (UniProt Q5T8I3)
inactive: [2] 0.182 | lapatinib 0.154 | [7] -0.159 | ispinesib 0.039

EWSR1 (UniProt H7BY36)
inactive: zotarolimus -0.106 | idasanutlin 0.022 | alisertib -0.252 | [2] 0.028 | gefitinib -0.008 | [6] -0.062 | lapatinib 0.094 | [7] -0.077 | [3] 0.01

EVA1B (UniProt Q9NVM1)
inactive: alisertib -0.492 | [6] 0.206

FAM126B (UniProt Q8IXS8)
inactive: idasanutlin -0.07 | [2] -0.091 | gefitinib -0.01 | lapatinib -0.098 | pictilisib 0.104 | duvelisib 0.19 | gandotinib -0.145 | [4] 0.079

F2R (UniProt P25116)
inactive: zotarolimus -0.132 | idasanutlin 0.038 | [2] -0.232 | lapatinib -0.065 | pictilisib -0.154 | [3] -0.087 | gandotinib 0 | tozasertib 0.195

F2RL3 (UniProt Q96RI0)
inactive: zotarolimus -0.075 | idasanutlin -0.017 | [2] 0.017 | lapatinib 0.029 | [3] -0.159 | [4] -0.059 | ispinesib 0.004

FAM122B isoform 2 (UniProt Q7Z309)
inactive: zotarolimus 0.02 | alisertib -0.112 | [6] 0.123 | [3] -0.014

EXOG (UniProt Q9Y2C4)
inactive: zotarolimus -0.008 | idasanutlin 0.015 | alisertib -0.2 | [2] -0.103 | [6] 0.16 | lapatinib 0.014 | pictilisib -0.008 | [3] -0.005 | duvelisib -0.007 | gandotinib 0.05 | tozasertib 0.176 | [4] 0.036 | ispinesib 0.101

FAM171A2 (UniProt A8MVW0)
inactive: pictilisib 0.007 | gandotinib -0.069 | ispinesib 0.115

EPN1 isoform 3 (UniProt Q9Y6I3)
inactive: duvelisib -0.046 | [4] 0.232

EYA3 (UniProt Q99504)
inactive: zotarolimus 0.054 | idasanutlin 0.073 | alisertib 0.26 | [6] -0.025 | pictilisib 0.169 | [3] 0.179 | gandotinib -0.261 | tozasertib 0.043

FAM160B2 (UniProt Q86V87)
inactive: zotarolimus 0.08 | alisertib -0.034 | [6] -0.231 | pictilisib -0.099 | [3] -0.017 | gandotinib 0.328

ETF1 isoform 2 (UniProt P62495)
inactive: idasanutlin -0.126 | [2] 0.145 | lapatinib -0.25 | pictilisib 0.005 | duvelisib 0.047 | gandotinib -0.299 | [4] -0.144 | ispinesib -0.257

ERMARD (UniProt Q5T6L9)
inactive: zotarolimus 0.098 | alisertib -0.558 | [6] 0.281 | [3] -0.031

ERAP2 (UniProt Q6P179)
inactive: alisertib 0.353 | [2] 0.204 | gefitinib 0.146 | [6] 0.08 | lapatinib -0.049 | [7] 0.135 | duvelisib 0.116 | [4] -0.078

EPS8L2 isoform 3 (UniProt Q9H6S3)
inactive: filanesib -0.023 | [1] -0.074 | [7] -0.067 | duvelisib -0.239 | tozasertib 0.137 | [4] -0.075 | ispinesib 0.099

FAM126A (UniProt Q9BYI3)
inactive: idasanutlin 0.113 | alisertib -0.198 | [6] -0.104 | [7] -0.223 | ispinesib -0.063

EPB41L5 (UniProt Q9HCM4)
inactive: [7] -0.032
